Changes are numbered by the printed parent chain. No constants are given. Whether binding was seen depends on the method and setting. In cells and extracts the contact can be indirect. Some entries that bind do so weakly or less than the wild type. Sequences can lack the tags named with a protein.
What was measured:
[1] = target: T1, Flag-tagged TLE6, wild type (human) (UniProt Q9H808); assay: co-IP; cells expressing Flag-tagged wild-type or S510Y TLE6; lysate on anti-Flag beads, 2 h at 4 °C, pull-down buffer 50 mM HEPES pH 7.5, 150 mM NaCl, 0.1 % Tween 20; immunoblot for OOEP and KDHC3L
T1 sequence: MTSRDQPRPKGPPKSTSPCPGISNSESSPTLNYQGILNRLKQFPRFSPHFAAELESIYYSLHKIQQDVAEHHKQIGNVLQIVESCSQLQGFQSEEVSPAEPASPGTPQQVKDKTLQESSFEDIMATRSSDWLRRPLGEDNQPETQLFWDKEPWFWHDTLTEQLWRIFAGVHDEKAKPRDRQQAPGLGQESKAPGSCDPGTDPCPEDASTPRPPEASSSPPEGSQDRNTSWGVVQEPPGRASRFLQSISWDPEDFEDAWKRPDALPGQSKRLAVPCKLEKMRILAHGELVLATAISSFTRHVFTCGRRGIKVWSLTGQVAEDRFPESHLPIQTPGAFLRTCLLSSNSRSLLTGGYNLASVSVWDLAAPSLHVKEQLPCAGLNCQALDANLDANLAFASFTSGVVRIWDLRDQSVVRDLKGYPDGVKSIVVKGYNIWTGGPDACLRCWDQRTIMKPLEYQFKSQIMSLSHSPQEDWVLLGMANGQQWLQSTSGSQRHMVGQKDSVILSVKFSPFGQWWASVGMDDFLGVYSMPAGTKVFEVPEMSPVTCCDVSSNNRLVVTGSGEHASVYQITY

By UniProt entry, the sequences of proteins in these tests, tags left out.
UniProt A6NGQ2: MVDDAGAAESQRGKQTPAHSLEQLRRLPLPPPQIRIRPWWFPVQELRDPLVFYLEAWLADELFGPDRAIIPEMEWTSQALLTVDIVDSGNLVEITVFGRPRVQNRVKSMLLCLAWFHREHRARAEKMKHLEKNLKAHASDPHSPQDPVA

[2] = target: T2, Flag-tagged TLE6 S510Y (human) (UniProt Q9H808); assay: as above
T2 sequence: T1 sequence with S510Y

binding [1]: binds
binding [2]: binds
Substance: OOEP in the cells transfected with Flag-TLE6 (from UniProt A6NGQ2 1-149)

Reference: article PMC4634911
